Test system: PC-3 cells
Test: MTS cell proliferation assay, PC-3
Type: cell-based
Conditions: Homo sapiens
Description: Human BJ fibroblasts (American Type Cell Culture Collection, Manassas, VA, USA, CRL-2522) and human prostate cancer cell line PC-3 (American Type Cell Culture Collection, Manassas, VA, USA, CRL-1435), derived from bone metastases, were routinely grown in […]) Medium (ThermoFisher, Waltham, MA, USA, 21127-022) and supplemented with heat-inactivated 10% Fetal Bovine Serum (Biowest, France, […]) and 1% antibiotic solution (Biowest, Nuaillé, France, L0022), in a humidified 5% CO2 atmosphere at 37 °C. Cells were used between 3 and 20 passages. […] The cell proliferation was analyzed with CellTiter Aqueous One Solution Cell Proliferation MTS (3-(4,5-dimethylthiazol-2-yl)-5-(3-carboxymethoxyphenyl)-2-(4-sulfophenyl)-2H-tetrazolium) Assay (Promega, Madison, WI, USA, G5430) after 24 or 48 h of treatment. The absorbance was measured at 490 and 670 nm with FLUOStar Omega plate reader (BMG LABTECH GmbH, Ortenberg, Germany). […] To assess the goodness of fit for each of the biological replicates, deviance R^2 (DR^2) was calculated and assessed. […] The DR^2 was calculated according to the following Equation: 1 - (Dres/Dnull), where Dres-residual deviance and Dnull-null deviance (deviance of the model with mean as a predicted value). The null hypothesis was assessed with the two-way ANOVA with Tukey's post hoc test for multiple comparisons or with the two-way t-test when only two groups were compared. […]

SMILES: COc1cc2c(c(OC)c1OC)-c1ccc(OC)c(=O)cc1[C@@H](NC(C)=O)CC2 [colchicine, reference compound]
- IC50 (PC-3, 24 h): 0.0235 ± 0.00275 µM
- IC50 (PC-3, 48 h): 0.0125 ± 0.00126 µM
